Data taken from the supplement of paper PMC10382679.
Single values of this set are uncertain.

B1: Rpb7; numbered along this chain (parent)
chain: MFFIKDLSLNITLHPSFFGPRMKQYLKTKLLEEVEGSCTGKFGYILCVLDYDNIDIQRGRILPTDGSAEFNVKYRAVVFKPFKGEVVDGTVVSCSQHGFEVQVGPMKVFVTKHLMPQDLTFNAGSNPPSYQSSEDVITIKSRIRVKIEGCISQVSSIHAIGSIKEDYLGAI

Assays:
[1] = variants of: B1; test: log2 fold change of mutant abundance, UV-irradiated vs unirradiated; higher = more UV resistant (enriched after UV); conditions: with Saccharomyces cerevisiae rad7Δ rad26Δ; UV dose (J/m2): 10; genetic background: rad7Δ rad26Δ rpb7Δ + plasmid RPB7 library; outgrowth: 10 cell divisions
[2] = variants of: B1; test: NOISeq theta enrichment statistic, UV-irradiated vs unirradiated (dimensionless); higher = more UV resistant (enriched after UV); conditions: with Saccharomyces cerevisiae rad7Δ rad26Δ; UV dose (J/m2): 10; genetic background: rad7Δ rad26Δ rpb7Δ + plasmid RPB7 library; outgrowth: 10 cell divisions

Row | Variant | log2 fold change of mutant abundance [1] | NOISeq theta enrichment statistic [2]
1 | MFFIKDLSLNITLHPSFFGPRMKQYLKTKLLEEVEGSCTGKFGYILCVLDYDNIDIQRGRILPTDGSAEFNVKYRAVVFKPFKGEVVDGTHVSCSQHGFEVQVGPMKVFVTKHLMPQDLTFNAGSNPPSYQSSEDVITIKSRIRVKIEGCISQVSSIHAIGSIKEDYLGAI [V91H] | 0.133 | 0.0838
2 | MFFIKDLSLNITLHPSFFGPRMKQYLKTKLLEEVEGSCTGKFGYILCVLDYDNIDIQRGRILPTDGSAEFNVKYRAVVFKPFKGEVVDGTIVSCSQHGFEVQVGPMKVFVTKHLMPQDLTFNAGSNPPSYQSSEDVITIKSRIRVKIEGCISQVSSIHAIGSIKEDYLGAI [V91I] | -0.0179 | -0.0627
3 | MFFIKDLSLNITLHPSFFGPRMKQYLKTKLLEEVEGSCTGKFGYILCVLDYDNIDIQRGRILPTDGSAEFNVKYRAVVFKPFKGEVVDGTLVSCSQHGFEVQVGPMKVFVTKHLMPQDLTFNAGSNPPSYQSSEDVITIKSRIRVKIEGCISQVSSIHAIGSIKEDYLGAI [V91L] | 0.0584 | 0.0935
4 | MFFIKDLSLNITLHPSFFGPRMKQYLKTKLLEEVEGSCTGKFGYILCVLDYDNIDIQRGRILPTDGSAEFNVKYRAVVFKPFKGEVVDGTMVSCSQHGFEVQVGPMKVFVTKHLMPQDLTFNAGSNPPSYQSSEDVITIKSRIRVKIEGCISQVSSIHAIGSIKEDYLGAI [V91M] | 0.216 | 0.21
5 | MFFIKDLSLNITLHPSFFGPRMKQYLKTKLLEEVEGSCTGKFGYILCVLDYDNIDIQRGRILPTDGSAEFNVKYRAVVFKPFKGEVVDGTNVSCSQHGFEVQVGPMKVFVTKHLMPQDLTFNAGSNPPSYQSSEDVITIKSRIRVKIEGCISQVSSIHAIGSIKEDYLGAI [V91N] | -0.102 | -0.0761
6 | MFFIKDLSLNITLHPSFFGPRMKQYLKTKLLEEVEGSCTGKFGYILCVLDYDNIDIQRGRILPTDGSAEFNVKYRAVVFKPFKGEVVDGTRVSCSQHGFEVQVGPMKVFVTKHLMPQDLTFNAGSNPPSYQSSEDVITIKSRIRVKIEGCISQVSSIHAIGSIKEDYLGAI [V91R] | 0.148 | 0.0975
7 | MFFIKDLSLNITLHPSFFGPRMKQYLKTKLLEEVEGSCTGKFGYILCVLDYDNIDIQRGRILPTDGSAEFNVKYRAVVFKPFKGEVVDGTSVSCSQHGFEVQVGPMKVFVTKHLMPQDLTFNAGSNPPSYQSSEDVITIKSRIRVKIEGCISQVSSIHAIGSIKEDYLGAI [V91S] | 0.129 | 0.166
8 | MFFIKDLSLNITLHPSFFGPRMKQYLKTKLLEEVEGSCTGKFGYILCVLDYDNIDIQRGRILPTDGSAEFNVKYRAVVFKPFKGEVVDGTTVSCSQHGFEVQVGPMKVFVTKHLMPQDLTFNAGSNPPSYQSSEDVITIKSRIRVKIEGCISQVSSIHAIGSIKEDYLGAI [V91T] | -0.0212 | -0.0186
9 | MFFIKDLSLNITLHPSFFGPRMKQYLKTKLLEEVEGSCTGKFGYILCVLDYDNIDIQRGRILPTDGSAEFNVKYRAVVFKPFKGEVVDGTWVSCSQHGFEVQVGPMKVFVTKHLMPQDLTFNAGSNPPSYQSSEDVITIKSRIRVKIEGCISQVSSIHAIGSIKEDYLGAI [V91W] | -0.0187 | -0.0176
10 | MFFIKDLSLNITLHPSFFGPRMKQYLKTKLLEEVEGSCTGKFGYILCVLDYDNIDIQRGRILPTDGSAEFNVKYRAVVFKPFKGEVVDGTYVSCSQHGFEVQVGPMKVFVTKHLMPQDLTFNAGSNPPSYQSSEDVITIKSRIRVKIEGCISQVSSIHAIGSIKEDYLGAI [V91Y] | 0.108 | 0.0863
11 | MFFIKDLSLNITLHPSFFGPRMKQYLKTKLLEEVEGSCTGKFGYILCVLDYDNIDIQRGRILPTDGSAEFNVKYRAVVFKPFKGEVVDGTVASCSQHGFEVQVGPMKVFVTKHLMPQDLTFNAGSNPPSYQSSEDVITIKSRIRVKIEGCISQVSSIHAIGSIKEDYLGAI [V92A] | 0.00858 | 0.0257
12 | MFFIKDLSLNITLHPSFFGPRMKQYLKTKLLEEVEGSCTGKFGYILCVLDYDNIDIQRGRILPTDGSAEFNVKYRAVVFKPFKGEVVDGTVCSCSQHGFEVQVGPMKVFVTKHLMPQDLTFNAGSNPPSYQSSEDVITIKSRIRVKIEGCISQVSSIHAIGSIKEDYLGAI [V92C] | 0.0158 | 0.0189
13 | MFFIKDLSLNITLHPSFFGPRMKQYLKTKLLEEVEGSCTGKFGYILCVLDYDNIDIQRGRILPTDGSAEFNVKYRAVVFKPFKGEVVDGTVDSCSQHGFEVQVGPMKVFVTKHLMPQDLTFNAGSNPPSYQSSEDVITIKSRIRVKIEGCISQVSSIHAIGSIKEDYLGAI [V92D] | -0.00661 | -0.0178
14 | MFFIKDLSLNITLHPSFFGPRMKQYLKTKLLEEVEGSCTGKFGYILCVLDYDNIDIQRGRILPTDGSAEFNVKYRAVVFKPFKGEVVDGTVESCSQHGFEVQVGPMKVFVTKHLMPQDLTFNAGSNPPSYQSSEDVITIKSRIRVKIEGCISQVSSIHAIGSIKEDYLGAI [V92E] | 0.206 | 0.19
15 | MFFIKDLSLNITLHPSFFGPRMKQYLKTKLLEEVEGSCTGKFGYILCVLDYDNIDIQRGRILPTDGSAEFNVKYRAVVFKPFKGEVVDGTVFSCSQHGFEVQVGPMKVFVTKHLMPQDLTFNAGSNPPSYQSSEDVITIKSRIRVKIEGCISQVSSIHAIGSIKEDYLGAI [V92F] | 0.0176 | 0.0595
16 | MFFIKDLSLNITLHPSFFGPRMKQYLKTKLLEEVEGSCTGKFGYILCVLDYDNIDIQRGRILPTDGSAEFNVKYRAVVFKPFKGEVVDGTVGSCSQHGFEVQVGPMKVFVTKHLMPQDLTFNAGSNPPSYQSSEDVITIKSRIRVKIEGCISQVSSIHAIGSIKEDYLGAI [V92G] | -0.0304 | -0.122
17 | MFFIKDLSLNITLHPSFFGPRMKQYLKTKLLEEVEGSCTGKFGYILCVLDYDNIDIQRGRILPTDGSAEFNVKYRAVVFKPFKGEVVDGTVHSCSQHGFEVQVGPMKVFVTKHLMPQDLTFNAGSNPPSYQSSEDVITIKSRIRVKIEGCISQVSSIHAIGSIKEDYLGAI [V92H] | 0.491 | 0.274

Two consecutive records from above, quoted:
Row | Variant | log2 fold change of mutant abundance [1] | NOISeq theta enrichment statistic [2]
5 | MFFIKDLSLNITLHPSFFGPRMKQYLKTKLLEEVEGSCTGKFGYILCVLDYDNIDIQRGRILPTDGSAEFNVKYRAVVFKPFKGEVVDGTNVSCSQHGFEVQVGPMKVFVTKHLMPQDLTFNAGSNPPSYQSSEDVITIKSRIRVKIEGCISQVSSIHAIGSIKEDYLGAI [V91N] | -0.102 | -0.0761
6 | MFFIKDLSLNITLHPSFFGPRMKQYLKTKLLEEVEGSCTGKFGYILCVLDYDNIDIQRGRILPTDGSAEFNVKYRAVVFKPFKGEVVDGTRVSCSQHGFEVQVGPMKVFVTKHLMPQDLTFNAGSNPPSYQSSEDVITIKSRIRVKIEGCISQVSSIHAIGSIKEDYLGAI [V91R] | 0.148 | 0.0975
